# PubChem BioAssay AID1259405, NCATS – 2018
# Screen: 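Knock-downs that lift recombinant protein yield in hamster ovary cells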 (primary screen)
# Cell system: Chinese hamster CHO-K1 ovary cells with stable secreted eGFP expression
# Reagents: single siRNA against mouse genes, 0.8 pmol siRNA per well (2 µl of 400 nM stock)
# Duration: 3 days
# Measured: 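Per-well intracellular GFP measured by laser scanning cytometry, plus viability from ATP luminescence, each relative to plate median of non-targeting control wells, in %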
# Reading the numbers: GFP, % of control: higher = more GFP per well, higher productivity; viability (ATP), % of control: higher = more viable cells (more ATP)
# Active means: 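Called active when intracellular GFP, relative to negative control, is at or above 120%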
# In all, the deposit lists about 50,000 reagents; shown is an unselected part. In the full data, about 4,000 (8%) got an active call. 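Mouse siRNA library applied to hamster cells; one well for each siRNA.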 Unmarked entries are inactive. The numbers tell different reagents against one gene apart. Reagent sequences are not shown.
gene knocked down,siRNA no.,"GFP, % of control","viability (ATP), % of control"
Syt15 (GeneID 319508),1,85.4,94.4
Syt15 (GeneID 319508),2,100,90.2
Rabggta (GeneID 56187),1,82.5,67.4
Rabggta (GeneID 56187),2,63,62.1
Rabggta (GeneID 56187),3,77.9,62.2
Wdtc1 (GeneID 230796),1,190 (active),125
Wdtc1 (GeneID 230796),2,96.3,75.9
Wdtc1 (GeneID 230796),3,81.6,92.5
Or52z12 (GeneID 258838),1,66.4,53.5
Or52z12 (GeneID 258838),2,81.1,68.6
Or52z12 (GeneID 258838),3,74.2,79.2
Abtb1 (GeneID 80283),1,99.8,80.2
Abtb1 (GeneID 80283),2,75.5,106
Abtb1 (GeneID 80283),3,76.7,79.6
Jtb (GeneID 23922),1,78.2,85.3
Jtb (GeneID 23922),2,49.8,49.7
Jtb (GeneID 23922),3,59.5,54.1
Krtap31-2 (GeneID 432602),1,81.6,74.5
Krtap31-2 (GeneID 432602),2,74.9,64.4
Krtap31-2 (GeneID 432602),3,93.8,65.6
Mmp27 (GeneID 234911),1,68.5,66.9
Mmp27 (GeneID 234911),2,46.5,57
Hnf4a (GeneID 15378),1,95.3,99.7
Hnf4a (GeneID 15378),2,96.9,77.2
Tmod2 (GeneID 50876),1,62.1,73.5
Tmod2 (GeneID 50876),2,95.8,98
Tmod2 (GeneID 50876),3,60.6,71.4
Tkfc (GeneID 225913),1,97.8,94
Tkfc (GeneID 225913),2,78.5,95.9
D830013H23Rik (GeneID 319412),1,66.9,84.1
D830013H23Rik (GeneID 319412),2,68,82.1
D830013H23Rik (GeneID 319412),3,86.7,92.8
Rbm5 (GeneID 83486),1,123 (active),96.7
Rbm5 (GeneID 83486),2,85.4,84

Just “viability (ATP), % of control” (3 entries from above):
Jtb (GeneID 23922) #3	54.1
Krtap31-2 (GeneID 432602) #1	74.5
Krtap31-2 (GeneID 432602) #2	64.4

The results go on.
gene knocked down,siRNA no.,"GFP, % of control","viability (ATP), % of control"
Cyp4f16 (GeneID 70101),1,50.9,32.5
Cyp4f16 (GeneID 70101),2,105,90.3
Cyp4f16 (GeneID 70101),3,87.8,85.5
Ptpa (GeneID 110854),1,90.1,79.9
Ptpa (GeneID 110854),2,92,58.4
Ptpa (GeneID 110854),3,66.5,99.9
Klk8 (GeneID 259277),1,61.2,76.7
Klk8 (GeneID 259277),2,69.4,55.9
Klk8 (GeneID 259277),3,39,43.4
Tmem198b (GeneID 73827),1,112,69.9
Tmem198b (GeneID 73827),2,83.5,98.6
Tmem198b (GeneID 73827),3,91.7,106
Mpp3 (GeneID 13384),1,66.6,79.1
Gpr173 (GeneID 70771),1,72.1,81.6
Gpr173 (GeneID 70771),2,62.8,77.3
Gpr173 (GeneID 70771),3,76.4,84.6
Retsat (GeneID 67442),1,79.1,48
Retsat (GeneID 67442),2,66.2,97.6
Retsat (GeneID 67442),3,86.9,87.5
Chn2 (GeneID 69993),1,176 (active),146
Chn2 (GeneID 69993),2,111,97.2
Chn2 (GeneID 69993),3,70.7,81.5
Glod5 (GeneID 69824),1,80.9,72.9
Glod5 (GeneID 69824),2,96,56.4
Glod5 (GeneID 69824),3,105,69.9
